This note sets out measurements from PubChem BioAssay AID330 (DTP/NCI, 2004).

The list does not hold the whole screen: it gathers tests that were run many times, whatever their T/C, doses with no T/C, and many T/C values between a quarter and a half above the control. Further doses and runs are listed elsewhere. T/C gives the treated animals as a percentage of the vehicle group. Some doses have a count of surviving animals in place of a T/C: the source holds a T/C of zero for them, seemingly a mark for toxic or unscored doses. Some survivor counts are full or nearly so, which does not show that the dose was tolerated: the source hardly ever lists a survival T/C far under the control, and the zero likely stands for such cases as well. Counts of survivors are from the toxicity check (mostly the fifth day) where no day follows; animals may have died later. Schedule codes are those of the source, taken here to give the interval after Q, in days (D) or hours (H), and the number of doses after X. For survival time, this PubChem deposit counts one and a half times the control or more as active, and values a quarter to a half above the control carry no call in these data; other NCI protocols may use other cut-offs. Some doses were run more than once; the results are listed from low to high. Brackets with × say how often a value occurs here.

The subject of this assay is P388 leukemia ip, CD2F1 mice, survival T/C. As to the kind of experiment: NCI In Vivo Anticancer Drug Screen. Data for tumor model P388 Leukemia (intraperitoneal) in CD2F1 (CDF1) mice. The note with it: T/C endpoint: median survival time, higher T/C = longer survival.
The mark [1] stands for this setting: dose: 200.0 mg/kg/injection, schedule: Q01DX001 (ip), vehicle: Klucel (hydroxypropylcellulose) (HPC).
[2] abbreviates: dose: 400.0 mg/kg/injection, schedule: Q01DX001 (ip), vehicle: Klucel (hydroxypropylcellulose) (HPC).
The mark [3] stands for this setting: dose: 40.0 mg/kg/injection, schedule: Q01DX009 (ip), vehicle: saline.
Where [4] appears, read: dose: 240.0 mg/kg/injection, schedule: Q01DX005 (ip), vehicle: saline with Tween-80.

In the case of `O=C(O)[C@H](Cc1ccccc1)N1C(=O)c2ccccc2C1=O`, the survivor count is reported as 1 of 6 (dose: 1000.0 mg/kg/injection, schedule: Q01DX001 (ip), vehicle: saline with Tween-80) and 0 of 6 (dose: 2000.0 mg/kg/injection, schedule: Q01DX001 (ip), vehicle: saline with Tween-80).
On to `CCOC(=O)/N=[N+](\[O-])c1ccc(Br)cc1`, for which the survivor count is, setting by setting: (dose: 100.0 mg/kg/injection, schedule: Q01DX001 (ip), vehicle: Klucel (hydroxypropylcellulose) (HPC)) 2 of 6; under setting [1], 0 of 6; under setting [2], 1 of 6.
Turning to `CC(C)(C)NC(C1=CC(C)(C)c2ccccc2C1=O)c1ccccc1` (stereo not drawn), the T/C (dose: 100.0 mg/kg/injection, schedule: Q01DX009 (ip), vehicle: Klucel + Tween-80) was 126 % of control. Further, the survivor count (dose: 200.0 mg/kg/injection, schedule: Q01DX009 (ip), vehicle: Klucel + Tween-80) is 4 of 6; the survivor count (dose: 400.0 mg/kg/injection, schedule: Q01DX009 (ip), vehicle: Klucel + Tween-80) is given as 0 of 6; the survivor count (dose: 600.0 mg/kg/injection, schedule: Q01DX009 (ip), vehicle: Klucel + Tween-80) is 0 of 4.
Take `C1CC2CC1C13OC1C1(CC1)C1OC213` (stereo not drawn): the T/C is, setting by setting: under setting [1], 133 % of control; under setting [2], 131 % of control. Moreover, the survivor count (dose: 800.0 mg/kg/injection, schedule: Q01DX001 (ip), vehicle: Klucel (hydroxypropylcellulose) (HPC)) is given as 3 of 6.
In the case of `COc1ccc2cc1Oc1ccc(cc1)CC1c3cc(c(OC)cc3CCN1C)Oc1c(OC)c(OC)c(O)c3c1C(C2)N(C)CC3` (stereo not drawn), the survivor count (dose: 200.0 mg/kg/injection, schedule: Q01DX001 (ip), vehicle: saline with Tween-80) was 3 of 6 and the survivor count (dose: 400.0 mg/kg/injection, schedule: Q01DX001 (ip), vehicle: saline with Tween-80) is recorded as 0 of 6.
For the molecule `Cc1cc(NC(=O)NCc2ccc(N3C(N)=NC(N)=NC3(C)C)cc2)ccc1S(=O)(=O)F`, the T/C reads like this: (dose: 25.0 mg/kg/injection, schedule: Q01DX009 (ip), vehicle: saline with Tween-80) 127 % of control; (dose: 50.0 mg/kg/injection, schedule: Q01DX009 (ip), vehicle: saline with Tween-80) 144 % of control; (dose: 50.0 mg/kg/injection, schedule: Q04DX003 (ip), vehicle: saline) 127 % of control; (dose: 100.0 mg/kg/injection, schedule: Q04DX003 (ip), vehicle: saline) 136 % of control.
For `O=C1NC(=O)C(F)(F)C(O)N1` (stereo not drawn), the T/C (dose: 28.0 mg/kg/injection, schedule: Q01DX009 (ip), vehicle: saline) was 140 % of control; the T/C under setting [3] was 145 % of control; the T/C (dose: 65.0 mg/kg/injection, schedule: Q01DX009 (ip), vehicle: saline sonified) was 145 % of control.
Regarding `COc1ccc(CCNC2Oc3ccc([N+](=O)[O-])cc3-c3nc(C)c(C#N)cc32)cc1OC` (stereo not drawn), the survivor count (dose: 120.0 mg/kg/injection, schedule: Q01DX005 (ip), vehicle: saline with Tween-80) was 6 of 6 and the survivor count under setting [4] is 6 of 6.
Turning to `CCCCCCOCC(=O)O`, where the note is “dose: 200.0 mg/kg/injection, schedule: Q01DX009 (ip), vehicle: saline with Tween-80”, the survivor count is reported as 3 of 6.
On to `O=[Se](OCC(F)(F)F)OCC(F)(F)F`, for which the survivor count is given as 0 of 6 (dose: 12.5 mg/kg/injection, schedule: Q01DX001 (ip), vehicle: saline); 0 of 6 (dose: 25.0 mg/kg/injection, schedule: Q01DX001 (ip), vehicle: saline); 0 of 6 (dose: 50.0 mg/kg/injection, schedule: Q01DX001 (ip), vehicle: saline); 0 of 6 (dose: 100.0 mg/kg/injection, schedule: Q01DX001 (ip), vehicle: saline); 0 of 6 (dose: 200.0 mg/kg/injection, schedule: Q01DX001 (ip), vehicle: saline).
Consider `CC(=O)CC(C)=O.CC(=O)CC(C)=O.[Cl][Sn][c]1ccccc1`, for which the T/C is, setting by setting: (dose: 50.0 mg/kg/injection, schedule: Q01DX005 (ip), vehicle: saline) 128 % of control; (dose: 100.0 mg/kg/injection, schedule: Q01DX005 (ip), vehicle: saline) 137 % of control.
Take `Cn1c2ccccc2c2cc3c(cc21)C(=O)OC3=O`: the survivor count reads like this: (dose: 25.0 mg/kg/injection, schedule: Q01DX005 (ip), vehicle: Klucel (hydroxypropylcellulose) (HPC)) 5 of 5; (dose: 50.0 mg/kg/injection, schedule: Q01DX005 (ip), vehicle: Klucel (hydroxypropylcellulose) (HPC)) 5 of 5; (dose: 200.0 mg/kg/injection, schedule: Q01DX005 (ip), vehicle: Klucel (hydroxypropylcellulose) (HPC)) 3 of 5.
Consider `ClCCN(CCCl)CC(Cl)COc1cccc2ccccc12` (stereo not drawn), for which the T/C was 94, 96, 120, 127 % of control (dose: 5.0 mg/kg/injection, schedule: Q01DX009 (ip), vehicle: saline); 119, 127, 132 % of control (2×) (dose: 10.0 mg/kg/injection, schedule: Q01DX009 (ip), vehicle: saline); 134 and 141 % of control (dose: 20.0 mg/kg/injection, schedule: Q01DX009 (ip), vehicle: saline); 133 and 139 % of control under setting [3].
Turning to `c1cc2c(cc1CN1CCOCC1)CCc1cc(CN3CCOCC3)ccc1N2`, the survivor count is given as 6 of 6 (dose: 120.0 mg/kg/injection, schedule: Q01DX005 (ip), vehicle: Klucel (hydroxypropylcellulose) (HPC)) and 6 of 6 (dose: 240.0 mg/kg/injection, schedule: Q01DX005 (ip), vehicle: Klucel (hydroxypropylcellulose) (HPC)).
Turning to `Nc1nc(SCc2ccccc2)c2ncn(CCCl)c2n1`, the survivor count was 6 of 6 (dose: 12.5 mg/kg/injection, schedule: Q01DX009 (ip), vehicle: saline); 6 of 6 (dose: 12.5 mg/kg/injection, schedule: Q01DX009 (ip), vehicle: suspension in saline); 6 of 6 (dose: 25.0 mg/kg/injection, schedule: Q01DX009 (ip), vehicle: suspension in saline).
For the molecule `C[CH](C)[GeH]([CH](C)C)[CH](C)C`, the survivor count (dose: 200.0 mg/kg/injection, schedule: Q01DX009 (ip), vehicle: saline) is given as 5 of 6.
For `O=c1[nH]nc(-c2ccccc2)c2c(/C=C/c3ccccc3)onc12`, the survivor count under setting [4] is 6 of 6.
Take `C/C(=N\NC(=S)N1CCN(c2ncccn2)CC1)c1ccccn1`: the survivor count is 6 of 6 (dose: 25.0 mg/kg/injection, schedule: Q01DX005 (ip), vehicle: saline with Tween-80); 6 of 6 (dose: 50.0 mg/kg/injection, schedule: Q01DX005 (ip), vehicle: saline with Tween-80); 0 of 6 (dose: 100.0 mg/kg/injection, schedule: Q01DX005 (ip), vehicle: saline with Tween-80); 0 of 6 (dose: 200.0 mg/kg/injection, schedule: Q01DX005 (ip), vehicle: saline with Tween-80).
For the molecule `O=c1c(CN(CCO)CCO)c(-c2ccccc2)sc2ccccc12`, the survivor count was 5 of 6 (dose: 200.0 mg/kg/injection, schedule: Q04DX002 (ip), vehicle: saline with Tween-80) and 0 of 6 (dose: 400.0 mg/kg/injection, schedule: Q04DX002 (ip), vehicle: saline with Tween-80).
Take `COC12C(COC(N)=O)C3=C(C(=O)C(C)=C(N4CC4)C3=O)N1CC1NC12` (stereo not drawn): the T/C (dose: 0.5 mg/kg/injection, schedule: Q04DX003 (ip), vehicle: saline with Tween-80) was 145 % of control.
Turning to `COc1cc2cc[n+]3c(C)c4cc5c(cc4cc3c2cc1OC)OCO5` (tested in a mixture with another compound), the T/C was 133 % of control (dose: 1.33 mg/kg/injection, schedule: Q01DX009 (ip), vehicle: saline); 135 % of control (dose: 2.0 mg/kg/injection, schedule: Q01DX009 (ip), vehicle: saline); 144 % of control (dose: 3.0 mg/kg/injection, schedule: Q01DX009 (ip), vehicle: saline); 143 % of control (dose: 5.56 mg/kg/injection, schedule: Q01DX009 (ip), vehicle: saline).
Turning to `BrC1=CC(Br)=C2N=C(C(Br)(Br)Br)N=C3N=C(C(Br)(Br)Br)N=C1N32`, the survivor count is given as 2 of 6 (dose: 120.0 mg/kg/injection, schedule: Q01DX005 (ip), vehicle: Klucel + Tween-80) and 0 of 6 (dose: 240.0 mg/kg/injection, schedule: Q01DX005 (ip), vehicle: Klucel + Tween-80).
